No constants are given. Whether binding was seen depends on the method and setting.

From patent US20240192215A1 come the findings set out here.

Assay [1] concerns the target Chrysochloris asiatica Trx1 (CaTrx1) (Chrysochloris asiatica). Kind of assay: ELISA, plate coated with 10ug TRX1(Asiatica)-N-His, anti-mouse HRP (Example 14) [panel B].
For assay [2] the target is unchanged. Kind of assay: ELISA on coated antigen. In general terms: An ELISA detects its analyte on a solid surface through an enzyme-linked reagent.

B1: monoclonal antibody B264 (antibody, mouse IgG1, kappa, V domains shown)
VH: QVQLQQSGAELARPGASVKMSCKASGYTFTSYTMHWVKQRPGQGLEWIGYINPTSDYTNYNQKFKDKATLTADKSSSTAYMQLSSLTSEDSAVYFCASEGGFLYYFDYWGQGTTLTVSS
VL: DVLMTQTPLSLPVSLGDQASISCRSSQSIVHSNGNTYLEWYLQKPGQSPKLLIYKVSNRFSGVPDRFSGSGSGTDFTLKISRVEAEDLGVYYCFQGSHVPYTFGGGTKLEIKR
For B1, the binding entry was “no binding (tested: 100 nM)” in assay [1] and “no binding (tested: 10 µg of CaTrx1 coated)” in assay [2].
